Part of at least one peptide drawing is inferred or uncertain, most often the ends.
Experiments:
[1] = molecular target: T1, VASP-EVH1 domain (Homo sapiens, UniProt P50552); assay: Binding affinity of ligand peptides by NMR titration; settings: read-out: Binding affinity (NMR), interaction with the VASP-EVH1 domain in solution
T1 construct: ligand peptides with the VASP-EVH1 domain in solution

Protein sequences, listed by entry. Tags and fused reporters are not part of them. Residues count along the entry.
UniProt P50552, 2-113: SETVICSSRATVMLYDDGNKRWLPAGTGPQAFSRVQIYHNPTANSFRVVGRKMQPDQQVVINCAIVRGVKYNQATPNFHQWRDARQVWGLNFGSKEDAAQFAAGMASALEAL

[2] = molecular target: T2, EVH1 domain (Homo sapiens, UniProt P50552); assay: Biological binding studies of ligand peptides containing component 85, stated in words; settings: compared with the native peptide
T2 construct: ligand peptides with the VASP-EVH1 domain in solution

[3] = molecular target: T1, VASP-EVH1 domain; assay: Binding affinity of ligand peptides by fluorescence titration; settings: read-out: Fluorescence titration (binding affinity), interaction with the VASP-EVH1 domain in solution
[4] = molecular target: T1, VASP-EVH1 domain; assay: Binding affinity of ligand peptides by kinetic Biacore method; settings: read-out: Binding affinity (Biacore), interaction with the VASP-EVH1 domain
Protocol: With the aid of the synthetic compound 85, ligand peptides with partially or completely replaced proline sequences were synthesized by way of example and investigated for their interaction with the EVH1 domain (pp=component 85). […] The binding affinities were determined by means of NMR titration, the kinetic Biacore method or by means of fluorescence titration.

`CC(C)C[C@H](NC(=O)[C@H](CCC(=O)O)NC(=O)[C@H](CC(=O)O)NC(=O)[C@H](CCC(=O)O)NC(=O)[C@@H](NC(=O)[C@@H]1CCCN1C(=O)[C@@H]1CC[C@@H]2C=C[C@@H](C)[C@H](NC(=O)[C@@H]3CCCN3C(=O)[C@H](Cc3ccccc3)NC(=O)[C@H](CCC(=O)O)NC(=O)[C@H](Cc3ccccc3)NC(=O)[C@@H](N)CO)C(=O)N21)[C@@H](C)O)C(=O)O` [SFEFPppPTEDEL (I)] was tested, and the Kd [1] was 20 to 35 µM, the “binding affinity of the ligand peptides to the EVH1 domain (in words)” value [2] was “good binding affinity” and the Kd [3] was 47 ± 14 µM. The Kd [4] was 29.3 to 33.3 µM.
